Test results as given in article PMC9237076.

Sequences of proteins named here, by UniProt entry; tags and fusion partners are left off.
UniProt P05549: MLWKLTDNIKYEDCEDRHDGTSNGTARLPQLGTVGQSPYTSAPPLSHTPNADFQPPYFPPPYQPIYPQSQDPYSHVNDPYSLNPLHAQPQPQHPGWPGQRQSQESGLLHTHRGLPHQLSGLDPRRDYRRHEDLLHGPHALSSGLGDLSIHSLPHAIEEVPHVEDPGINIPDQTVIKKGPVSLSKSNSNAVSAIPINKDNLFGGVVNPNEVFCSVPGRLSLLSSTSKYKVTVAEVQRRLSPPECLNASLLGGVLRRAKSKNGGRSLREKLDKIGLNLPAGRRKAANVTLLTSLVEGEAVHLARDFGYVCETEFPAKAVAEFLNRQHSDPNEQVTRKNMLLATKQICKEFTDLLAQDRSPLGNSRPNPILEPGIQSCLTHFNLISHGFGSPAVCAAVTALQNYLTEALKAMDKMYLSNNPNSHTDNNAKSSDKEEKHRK

Biological target: T1, c-myc-tagged CIITA (major histocompatibility complex class II transactivator), in osteocytes (UniProt P33076)
T1 sequence: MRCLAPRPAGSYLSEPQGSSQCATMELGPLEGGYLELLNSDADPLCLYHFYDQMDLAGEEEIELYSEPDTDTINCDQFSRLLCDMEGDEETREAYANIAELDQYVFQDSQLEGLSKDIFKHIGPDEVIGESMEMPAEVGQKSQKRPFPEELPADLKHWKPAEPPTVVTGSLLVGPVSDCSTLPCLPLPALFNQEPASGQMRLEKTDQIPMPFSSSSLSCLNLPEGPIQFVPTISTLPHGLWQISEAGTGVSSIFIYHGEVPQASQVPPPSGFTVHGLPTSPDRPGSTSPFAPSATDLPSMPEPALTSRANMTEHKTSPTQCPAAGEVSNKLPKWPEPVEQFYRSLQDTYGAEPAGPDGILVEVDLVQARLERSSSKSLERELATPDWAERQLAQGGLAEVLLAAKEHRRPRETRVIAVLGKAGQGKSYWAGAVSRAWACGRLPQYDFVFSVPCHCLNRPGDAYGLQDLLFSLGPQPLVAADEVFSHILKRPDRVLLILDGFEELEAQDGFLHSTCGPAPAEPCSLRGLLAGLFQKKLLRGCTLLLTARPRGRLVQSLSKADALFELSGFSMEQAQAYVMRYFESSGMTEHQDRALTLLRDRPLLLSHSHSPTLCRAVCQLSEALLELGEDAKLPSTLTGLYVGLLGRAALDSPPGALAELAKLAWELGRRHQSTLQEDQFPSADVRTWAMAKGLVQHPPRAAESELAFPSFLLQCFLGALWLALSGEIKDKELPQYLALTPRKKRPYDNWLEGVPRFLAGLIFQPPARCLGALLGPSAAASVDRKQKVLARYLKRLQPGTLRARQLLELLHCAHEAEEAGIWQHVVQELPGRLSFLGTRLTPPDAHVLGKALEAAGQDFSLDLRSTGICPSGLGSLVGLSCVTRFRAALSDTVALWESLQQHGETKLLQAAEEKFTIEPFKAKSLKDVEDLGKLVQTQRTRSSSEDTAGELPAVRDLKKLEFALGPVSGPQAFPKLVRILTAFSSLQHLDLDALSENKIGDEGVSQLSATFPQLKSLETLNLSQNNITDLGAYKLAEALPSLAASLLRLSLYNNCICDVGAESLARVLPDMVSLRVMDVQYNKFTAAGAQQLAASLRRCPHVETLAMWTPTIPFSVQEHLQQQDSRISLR
Test: affinity purification with mass spectrometry; lysate of human osteocytes transfected with c-myc-CIITA pulled down by anti-c-Myc agarose; SDS-PAGE bands digested with trypsin, nano-LC/MS/MS; empty vector as control

binding: binds
Substance: transcriptional factor AP2α, in osteocytes transfected with c-myc-CIITA (from UniProt P05549 1-437)

No constants are given. Whether binding was seen depends on the method and setting. In cells and extracts the contact can be indirect. Here binding means that the protein was enriched with, or labelled near, the bait; the list need not be complete. Sequences can lack the tags named with a protein.
